Data source: PubChem BioAssay AID1259405 (NCATS, 2018)
Screen: 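Silenced genes that increase secreted GFP made by CHO cells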 (primary screen). System: Chinese hamster CHO-K1 ovary cells with stable secreted eGFP expression. Reagents: single siRNA against mouse genes, 0.8 pmol siRNA per well (2 µl of 400 nM stock). Duration: 3 days. Measurement: 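Percent of the per-plate non-targeting control median for intracellular GFP per well by laser scanning cytometry and for cell viability by ATP luminescence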. Reading the numbers: GFP, % of control: higher = more GFP per well, higher productivity; viability (ATP), % of control: higher = more viable cells (more ATP). Active means: 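a knock-down is called active if GFP reaches 120% or more of non-targeting control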.
Here is a random part of about 50,000 reagents tested. In the full data, about 4,000 (8%) got an active call. 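Mouse siRNA library applied to hamster cells; one well for each siRNA.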 The numbers tell different reagents against one gene apart.

no.	target	reagent no.	GFP, % of control	viability (ATP), % of control	outcome
1	Cyp2c50	1	95.3	62	inactive
2	Cyp2c50	2	71.1	83.1	inactive
3	Cyp2c50	3	77.7	72.8	inactive
4	Ece1	1	66.9	76.5	inactive
5	Ece1	2	122	66.7	active
6	Ece1	3	117	99.7	inactive
7	Ntsr2	1	29.7	57.2	inactive
8	Ntsr2	2	77.1	74.6	inactive
9	Ntsr2	3	175	89.8	active
10	Aff1	1	87.4	82.1	inactive
11	Aff1	2	67.8	68.4	inactive
12	Aff1	3	82.4	113	inactive
13	Vmn2r122	1	80.3	80.1	inactive
14	Vmn2r122	2	104	96.1	inactive
15	Vmn2r122	3	54.9	46.4	inactive
16	Misp	1	74.8	92.9	inactive
17	Misp	2	106	98.9	inactive
18	Misp	3	103	111	inactive
19	Wdr13	1	41.1	25.3	inactive
20	Wdr13	2	36.1	26.4	inactive
21	Wdr13	3	67.3	84	inactive
22	Gtf3c2	1	40.9	30.8	inactive
23	Gtf3c2	2	66.3	47.3	inactive
24	Gtf3c2	3	92.5	124	inactive
25	Ptgr2	1	89.6	81.8	inactive
26	Ptgr2	2	87.6	74.3	inactive
27	Ptgr2	3	82.4	78.5	inactive
28	Coa6	1	58.5	110	inactive
29	Coa6	2	87.6	74.2	inactive
30	Coa6	3	79.9	78.5	inactive
31	Cbfb	1	7.51	5.13	inactive
32	Cbfb	2	48.2	48.1	inactive
33	Cbfb	3	96.2	113	inactive
34	Fndc7	1	67.2	83.9	inactive
35	Fndc7	2	48.4	52.8	inactive
36	Fndc7	3	62.7	77.9	inactive
37	Cldn13	1	83.9	83.8	inactive
38	Cldn13	2	58.5	39.8	inactive
39	Cldn13	3	57.8	46.3	inactive
40	Sun5	1	65.4	80.2	inactive
41	Sun5	2	62	92.4	inactive
42	Sun5	3	74.9	69.2	inactive

Part of the list above, set out differently:
target,reagent no.,"GFP, % of control","viability (ATP), % of control",outcome
Vmn2r122,3,54.9,46.4,inactive
Misp,1,74.8,92.9,inactive
Misp,2,106,98.9,inactive
Misp,3,103,111,inactive
Wdr13,1,41.1,25.3,inactive
Wdr13,2,36.1,26.4,inactive

The list goes on.
no.	target	reagent no.	GFP, % of control	viability (ATP), % of control	outcome
43	Plekha1	1	29	30.4	inactive
44	Plekha1	2	36.7	37.6	inactive
45	Plekha1	3	53.3	49.1	inactive
46	Cryba2	1	87.5	83.7	inactive
47	Cryba2	2	97.1	58	inactive
48	Cryba2	3	80	108	inactive
49	Tcn2	1	107	79.9	inactive
50	Tcn2	2	66.7	81.9	inactive
51	Tcn2	3	24	69.2	inactive
52	Fnbp1l	1	63.6	86.1	inactive
53	Fnbp1l	2	78.3	81	inactive
54	Fnbp1l	3	69.8	73.3	inactive
55	Ca6	1	96.5	118	inactive
56	Ca6	2	70.5	67	inactive
57	Trpm3	1	105	81.5	inactive
58	Trpm3	2	93.1	97.6	inactive
59	Trpm3	3	29.6	35	inactive
60	Taf5l	1	50.8	37.8	inactive
61	Taf5l	2	69.2	64.5	inactive
62	Taf5l	3	75.7	73.6	inactive
63	Stub1	1	126	140	active
64	Stub1	2	74.2	77.8	inactive
65	Stx1b	1	64.5	69.4	inactive
66	Stx1b	2	58	35.9	inactive
67	Stx1b	3	115	108	inactive
68	Stx1b	4	124	74.6	active
69	Stx1b	5	72.5	75.9	inactive
70	Stx1b	6	66.8	76.5	inactive
71	Aftph	1	72.8	55.1	inactive
72	Aftph	2	80.3	93.1	inactive
73	Aftph	3	122	122	active
74	Sptssa	1	101	97.3	inactive
75	Sptssa	2	67.8	51.8	inactive
76	Sptssa	3	74.2	73.9	inactive
77	Pappa	1	93.8	75.6	inactive
78	Pappa	2	45.6	47.3	inactive
79	Pappa	3	62.2	45.1	inactive
80	Tcl1b5	1	64.5	65.1	inactive
81	Tcl1b5	2	88.8	95.9	inactive
82	Tcl1b5	3	109	110	inactive
83	Or51q1	1	109	59.8	inactive
84	Or51q1	2	74.2	57.5	inactive
85	Or51q1	3	44	68.8	inactive
